Literature values as cited in patent US20110117020A1, “IMAGING DENDRIMER NANOPROBES AND USES THEREOF” (THE TRUSTEES OF THE UNIVERSITY OF PENNSYLVANIA, priority 2008, published 2011).
Where two headings read alike, the source gives them in different places. For at least one compound, name, drawing or mass did not settle the structure.

Settings: deoxygenated benzene, cited from earlier work

C1=Cc2nc1c(-c1ccccc1)c1nc(c(-c3ccccc3)c3ccc([nH]3)c(-c3ccccc3)c3ccc([nH]3)c2-c2ccccc2)C=C1 [tetraphenylporphyrin]
fluorescence quantum yield of the standard (φfl): 0:11 | fluorescence quantum yield of the standard (φfl) (listed as H2TPP): [b] Emmission quantum yields were determined relative to the flourescence of H2TPP (φn = 0.11) in deoxygenated benzene.
